# Results of single-concentration screens

Sequences of proteins named here, by UniProt entry; tags and fusion partners are left off. Residues count along the entry.
UniProt Q8IDJ8, 1-583: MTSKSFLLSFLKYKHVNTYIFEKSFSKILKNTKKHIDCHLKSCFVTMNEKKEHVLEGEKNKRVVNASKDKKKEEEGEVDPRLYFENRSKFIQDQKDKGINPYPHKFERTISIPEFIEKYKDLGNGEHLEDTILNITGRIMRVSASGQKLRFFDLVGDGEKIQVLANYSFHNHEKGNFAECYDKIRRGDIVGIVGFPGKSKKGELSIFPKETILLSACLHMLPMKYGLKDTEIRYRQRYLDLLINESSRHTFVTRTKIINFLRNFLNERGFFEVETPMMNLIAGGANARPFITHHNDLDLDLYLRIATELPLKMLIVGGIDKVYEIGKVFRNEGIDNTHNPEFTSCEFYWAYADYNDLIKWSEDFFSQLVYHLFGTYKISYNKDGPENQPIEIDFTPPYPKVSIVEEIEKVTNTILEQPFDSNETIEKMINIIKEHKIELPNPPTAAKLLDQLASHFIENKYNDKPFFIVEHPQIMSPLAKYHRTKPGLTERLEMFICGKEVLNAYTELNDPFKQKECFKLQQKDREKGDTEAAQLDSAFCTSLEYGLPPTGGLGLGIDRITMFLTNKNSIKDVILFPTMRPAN
UniProt P9WNZ1, whole entry: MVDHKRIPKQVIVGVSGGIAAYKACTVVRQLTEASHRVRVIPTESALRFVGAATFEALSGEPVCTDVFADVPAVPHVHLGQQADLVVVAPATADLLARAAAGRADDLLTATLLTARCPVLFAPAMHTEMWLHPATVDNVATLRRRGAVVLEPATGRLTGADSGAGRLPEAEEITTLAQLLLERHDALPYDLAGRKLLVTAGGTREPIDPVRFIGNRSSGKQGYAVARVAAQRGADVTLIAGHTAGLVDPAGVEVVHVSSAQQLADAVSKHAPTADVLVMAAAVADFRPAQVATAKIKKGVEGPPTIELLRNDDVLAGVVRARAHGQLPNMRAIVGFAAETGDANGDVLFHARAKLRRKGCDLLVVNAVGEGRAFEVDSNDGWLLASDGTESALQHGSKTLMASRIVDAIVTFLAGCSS

Source: ChEMBL document CHEMBL3988442, “University of Dundee, Small-Polar-MMV Screening Library” (2021).

PfKRS1: 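Lysine-tRNA ligase, Plasmodium falciparum 3D7 (UniProt Q8IDJ8). Enzyme assay of the cytosolic lysyl-tRNA synthetase in 384-well plates, read by luminescence. Tested at 30 µM. Direction is inferred from only a few compounds that gave an IC50; most scored high, so higher reads as stronger inhibition. Size under these conditions: about 69,000 compounds, about 49 of them at 50% or above in at least one test.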
Toxoplasma: 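Assay of Toxoplasma gondii numbers, read through their beta-galactosidase reporter with a colour substrate. Tested at 10 µM. The record gives no direction; the compounds picked for IC50 retests had high values, so higher reads as fewer parasites. Size under these conditions: about 67,000 compounds, about 260 of them at 50% or above in at least one test.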
CoaBC: 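Coenzyme A biosynthesis protein CoaBC, Mycobacterium tuberculosis (UniProt P9WNZ1). Enzyme assay of CoaBC with a phosphate dye (Biomol Green) read at 650 nm. Tested at 30 µM. Higher reads as stronger inhibition, judged from the few compounds that gave an IC50. Most strong results did not repeat in a second test. About 67,000 compounds were tested under these conditions; 0.06% (about 40) showed 50% or more at least once.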

Results are given as percent effect.
The record does not define 0% and 100%; most values in the screen are far below 50% and negative numbers occur (in some assays of this library far below -100).
This is an unselected part of the compounds tested.
A dash means the value is not listed here; it may have been measured.

| # | Compound | PfKRS1 | Toxoplasma | CoaBC |
|---|---|---|---|---|
| 1 | `Cl.NCCCNS(=O)(=O)Cc1ccc(Br)cc1` | - | 21.55 | - |
| 2 | `O=C(CCCc1ccccn1)N1CCCC(n2cccn2)C1` (stereo not drawn) | 1.705 | -21.35 | 2.408 |
| 3 | `CCOCC(O)CN1CCN(C(=O)Cc2cccc(C)c2)CC1` (stereo not drawn) | -0.6497 | 8.694 | 4.436 |
| 4 | `Cc1cccc(-c2ccc(C(=O)NCCN(C)C3CC3)c(=O)[nH]2)c1` | 10.02 | -1.436 | 1.779 |
| 5 | `CCCOC1CCCN(C(=O)c2[nH]nc(C)c2Br)C1` (stereo not drawn) | -1.319 | -14.62 | 3.297 |
| 6 | `CCNC(=O)N1CC[C@H]2CC(=O)N(C3CCCCC3)CC[C@H]2C1` | 2.85 | - | 7.901 |
| 7 | `CN(CCc1ccccn1)C(=O)c1cn2c(n1)CNCC2` | 6.658 | -4.673 | 0.2481 |
| 8 | `COC(=O)NCC(=O)N(C)Cc1csc(-c2cccs2)n1` | 0.2888 | 1.265 | -0.5115 |
| 9 | `CC1CN(C(=O)c2cnn(-c3ccccn3)c2C(C)C)CC(C)(C)O1` (stereo not drawn) | 0.4999 | -6.325 | 5.622 |
| 10 | `C=Cc1cccc(CN2C[C@@H](CN(C)CC)[C@@H](CO)C2)c1` | 1.836 | -30.3 | 2.857 |
| 11 | `Cc1noc(C)c1NC(=O)NC1CCN(C(=O)OC(C)(C)C)CC1` | 3.071 | 9.819 | 3.509 |
| 12 | `Cc1cccc(CN2CC3(CCN(C(=O)C4CC4)CC3)OCC2=O)n1` | 6.135 | 6.833 | -9.63 |
| 13 | `O=C(O)C(F)(F)F.[H][C@@]12CN(Cc3cccs3)CCO[C@]1([H])CN(S(=O)(=O)CCC)C2` | - | -11.01 | - |
| 14 | `COc1ccc(-c2cc(C3CCCCCN3S(=O)(=O)N(C)C)on2)cc1` (stereo not drawn) | 3.238 | 30.69 | -9.722 |
| 15 | `CCn1nc2c(cc1=O)CN(CC(=O)Nc1cc(C(C)C)no1)CC2` | 7.094 | 17.33 | 2.959 |
| 16 | `Cc1nc(NC(=O)COCC(F)(F)F)ccc1Br` | 9.85 | -12.49 | 8.367 |
| 17 | `O=C(CC1CCCCC1)N1CCC(O)(C(F)(F)F)C1` (stereo not drawn) | -0.07386 | 0.7551 | - |
| 18 | `Cn1cc(NS(=O)(=O)CCOc2ccc(F)cc2)cn1` | -0.04573 | 5.573 | -0.2237 |
| 19 | `O=C(NCCCn1cncn1)NCC(c1ccco1)N1CCCCC1` (stereo not drawn) | 5.485 | -43.3 | 3.333 |
| 20 | `CCC(CC)CN1CCCn2nc(CNC(=O)COC)cc2C1` | 2.018 | 3.38 | 5.447 |
| 21 | `CC(C)(C)NC(=O)NC(=O)CNC(C)(C)c1ccc2c(c1)OCCO2` | -1.397 | 13.84 | 0.1186 |
| 22 | `Cc1cccc2cc(CN3CCC(N4CCCC4)CC3)c(=O)[nH]c12` | 1.42 | -14.68 | 3.602 |
| 23 | `CC(C)OCCCNC(=O)C1CCC(=O)N(C2CCCC2)C1` (stereo not drawn) | -3.231 | 2.829 | 3.427 |
| 24 | `Cc1cc(N2CCN3CCCCC3C2)n2nc(C)c(C)c2n1` (stereo not drawn) | 6.086 | -3.315 | -3.797 |
| 25 | `Cc1ncc(CNC(=O)c2oc3ccccc3c2CN(C)C)s1` | 4.744 | -3.333 | -6.198 |
| 26 | `Cn1ncc2c(=O)[nH]c(CN(Cc3cccc(F)c3)C3CC3)nc21` | 2.121 | 3.176 | -2.651 |
| 27 | `O=C(COc1ccc(C(F)(F)F)cc1)N1CCOCC1c1ncon1` (stereo not drawn) | 2.096 | 6.914 | -2.445 |
| 28 | `[H][C@]12CC[C@]([H])(CN(c3ccnc(SC)n3)C1)N(CC1CCC1)C2=O` | - | 4.503 | - |
| 29 | `O=C(c1cccc(F)c1)N(CCCO)S(=O)(=O)c1cccs1` | 3.365 | -3.338 | 3.24 |
| 30 | `CCN(CC)C(=O)Cn1ccc2cc(NC(=O)C3CCCCC3)ccc21` | -1.15 | 13.63 | 2.408 |
| 31 | `Cc1noc(CCCNC(=O)N2CCc3ccccc3C2CO)n1` (stereo not drawn) | 0.7678 | -0.7955 | 2.335 |
| 32 | `COc1ccc(CCN(C)C2CCCN(Cc3noc(C)n3)C2)cc1` (stereo not drawn) | -0.7382 | 24.92 | 5.102 |
| 33 | `COc1ccc(C(=O)N2CCOC3(CNCCOC3)C2)c(OC)n1` (stereo not drawn) | 0.08579 | 16.95 | 3.981 |
| 34 | `O=C(Nc1cc[nH]n1)c1ccc(COCC(F)(F)F)cc1` | -7.642 | 0.6457 | 0.7282 |
| 35 | `NC(=O)COCCNC(=O)Nc1sc2ccccc2c1Cl` | -3.039 | -9.183 | 10.12 |
| 36 | `[H][C@@]12CCC(=O)N(CCC3=CCCCC3)[C@]1([H])CCN(C1CCN(C)CC1)C2` | - | 10.31 | - |
| 37 | `CN1CC(=O)N(c2cccc(F)c2)CC12CCN(Cc1cccnc1)C2` (stereo not drawn) | 8.773 | - | 3.169 |
| 38 | `N#Cc1ncn(CCC(=O)Nc2c(Cl)cccc2Cl)n1` | 4.265 | -32.55 | 6.237 |
| 39 | `Cn1nccc1-c1ncc2c(c1C(=O)O)CCN(Cc1cccnc1)C2` | 2.707 | - | 1.667 |
| 40 | `CC(C)C(NC(=O)c1ccco1)C(=O)N1CCC2(CC1)OCCO2` (stereo not drawn) | 1.162 | 3.598 | -4.065 |
| 41 | `CSCCN1CCC(NC(=O)c2cccc(C3CCCNC3)c2)CC1` (stereo not drawn) | 2.74 | 3.204 | 6.399 |
| 42 | `COc1c(C)cnc(CN(C)C2CCN(C3CCOCC3)CC2)c1C` | 4.586 | 16.07 | -2.163 |
| 43 | `Cn1c(N2CCOCC2)nc2cc(C(=O)NCC(F)(F)F)ccc21` | 7.256 | -3.936 | 3.827 |

Repeated from the top, 2 entries:

Cl.NCCCNS(=O)(=O)Cc1ccc(Br)cc1 read Toxoplasma: 21.55%.
O=C(CCCc1ccccn1)N1CCCC(n2cccn2)C1 (stereo not drawn) read PfKRS1: 1.705%; Toxoplasma: -21.35%; CoaBC: 2.408%.